# According to the supplement of paper PMC8728848:
# The other results are listed elsewhere or left out.
# B1: Langerin K299A/K313A (Homo sapiens), Q9UJ71 (protein)
# chain: STLNAQIPELKSDLEKASALNTKIRALQGSLENMSKLLKRQNDILQVVSQGWKYFKGNFYYFSLIPKTWYSAEQFCVSRNSHLTSVTSESEQEFLYKTAGGLIYWIGLTKAGMEGDWSWVDDTPFNKVQSARFWIPGEPNNAGNNEHCGNIAAPSLQAWNDAPCDATFLFICKRPYVPSEP
# What was measured:
# Assay in all cases: glycan array binding signal (z-score within array); higher = stronger binding
# Conditions in all cases: glycan notation: IUPAC condensed, linker removed
# [1] = target: Neu5Ac(a2-3)Gal(b1-3)[Fuc(a1-4)]GlcNAc
# How it was run: (§1)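 Arrays were curated from the Consortium for Functional Glycomics database, 3228 in total, and kept only where the protein sequence was available. Binding is expressed as a within-array Z-score. This score was averaged across arrays of the same protein sequence at different concentrations or buffers and across linkers, and negative values can be read as non-binding.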
# [2] = target: Neu5Ac(a2-3)Gal(b1-3)[Fuc(a1-4)]GlcNAc(b1-3)Gal(b1-3)[Fuc(a1-4)]GlcNAc
# How it was run: as §1
# [3] = target: Neu5Ac(a2-3)Gal(b1-3)[Fuc(a1-4)]GlcNAc(b1-3)Gal(b1-4)[Fuc(a1-3)]GlcNAc
# How it was run: as §1
# [4] = target: Neu5Ac(a2-3)Gal(b1-3)[GlcNAc(b1-6)]GalNAc
# How it was run: as §1
# [5] = target: Neu5Ac(a2-3)Gal(b1-3)[Neu5Ac(a2-6)]GalNAc
# How it was run: as §1
# [6] = target: Neu5Ac(a2-3)Gal(b1-3)[Neu5Ac(a2-6)]GlcNAc(b1-3)[Fuc(a1-3)[Gal(b1-4)]GlcNAc(b1-6)]Gal(b1-4)Glc
# How it was run: as §1
# [7] = target: Neu5Ac(a2-3)Gal(b1-3)]Neu5Ac(a2-3)Gal(b1-4)]GlcNAc
# How it was run: as §1
# Neu5Ac(a2-3)Gal(b1-4)Glc = target: Neu5Ac(a2-3)Gal(b1-4)Glc
# How it was run: as §1
# [8] = target: Neu5Ac(a2-3)Gal(b1-4)GlcNAc
# How it was run: as §1
# [9] = target: Neu5Ac(a2-3)Gal(b1-4)GlcNAc(b1-2)Man
# How it was run: as §1
# [10] = target: Neu5Ac(a2-3)Gal(b1-4)GlcNAc(b1-2)Man(a1-3)[GlcNAc(b1-4)][Neu5Ac(a2-3)Gal(b1-4)GlcNAc(b1-2)Man(a1-6)]Man(b1-4)GlcNAc(b1-4)GlcNAc
# How it was run: as §1
# [11] = target: Neu5Ac(a2-3)Gal(b1-4)GlcNAc(b1-2)Man(a1-3)[Neu5Ac(a2-3)Gal(b1-4)GlcNAc(b1-2)Man(a1-6)]Man(b1-4)GlcNAc(b1-4)GlcNAc
# How it was run: as §1
# [12] = target: Neu5Ac(a2-3)Gal(b1-4)GlcNAc(b1-2)Man(a1-3)[Neu5Ac(a2-3)Gal(b1-4)GlcNAc(b1-2)Man(a1-6)]Man(b1-4)GlcNAc(b1-4)[Fuc(a1-6)]GlcNAc
# How it was run: as §1
# [13] = target: Neu5Ac(a2-3)Gal(b1-4)GlcNAc(b1-2)Man(a1-3)[Neu5Ac(a2-6)Gal(b1-4)GlcNAc(b1-2)Man(a1-6)]Man(b1-4)GlcNAc(b1-4)GlcNAc
# How it was run: as §1
# [14] = target: Neu5Ac(a2-3)Gal(b1-4)GlcNAc(b1-2)[Neu5Ac(a2-3)Gal(b1-4)GlcNAc(b1-4)]Man(a1-3)[GlcNAc(b1-4)][Neu5Ac(a2-3)Gal(b1-4)GlcNAc(b1-2)[Neu5Ac(a2-3)Gal(b1-4)GlcNAc(b1-6)]Man(a1-6)]Man(b1-4)GlcNAc(b1-4)GlcNAc
# How it was run: as §1
# [15] = target: Neu5Ac(a2-3)Gal(b1-4)GlcNAc(b1-2)[Neu5Ac(a2-3)Gal(b1-4)GlcNAc(b1-4)]Man(a1-3)[GlcNAc(b1-4)][Neu5Ac(a2-3)Gal(b1-4)GlcNAc(b1-4)Man(a1-6)]Man(b1-4)GlcNAc(b1-4)GlcNAc
# How it was run: as §1
# [16] = target: Neu5Ac(a2-3)Gal(b1-4)GlcNAc(b1-2)[Neu5Ac(a2-3)Gal(b1-4)GlcNAc(b1-6)]Man(a1-6)[Neu5Ac(a2-3)Gal(b1-4)GlcNAc(b1-2)Man(a1-3)]Man(b1-4)GlcNAc(b1-4)GlcNAc
# How it was run: as §1
# [17] = target: Neu5Ac(a2-3)Gal(b1-4)GlcNAc(b1-2)[Neu5Ac(a2-3)Gal(b1-4)GlcNAc(b1-6)]Man(a1-6)[Neu5Ac(a2-3)Gal(b1-4)GlcNAc(b1-2)Man(a1-3)][GlcNAc(b1-4)]Man(b1-4)GlcNAc(b1-4)GlcNAc
# How it was run: as §1
# [18] = target: Neu5Ac(a2-3)Gal(b1-4)GlcNAc(b1-3)Gal
# How it was run: as §1
# [19] = target: Neu5Ac(a2-3)Gal(b1-4)GlcNAc(b1-3)Gal(b1-3)GlcNAc
# How it was run: as §1
# [20] = target: Neu5Ac(a2-3)Gal(b1-4)GlcNAc(b1-3)Gal(b1-4)GlcNAc
# How it was run: as §1
# [21] = target: Neu5Ac(a2-3)Gal(b1-4)GlcNAc(b1-3)Gal(b1-4)GlcNAc(b1-2)Man(a1-3)[Neu5Ac(a2-3)Gal(b1-4)GlcNAc(b1-3)Gal(b1-4)GlcNAc(b1-2)Man(a1-6)]Man(b1-4)GlcNAc(b1-4)GlcNAc
# How it was run: as §1
# [22] = target: Neu5Ac(a2-3)Gal(b1-4)GlcNAc(b1-3)Gal(b1-4)GlcNAc(b1-3)Gal(b1-4)GlcNAc
# How it was run: as §1
# [23] = target: Neu5Ac(a2-3)Gal(b1-4)GlcNAc(b1-3)Gal(b1-4)GlcNAc(b1-3)Gal(b1-4)GlcNAc(b1-2)Man(a1-3)[Neu5Ac(a2-3)Gal(b1-4)GlcNAc(b1-3)Gal(b1-4)GlcNAc(b1-3)Gal(b1-4)GlcNAc(b1-2)Man(a1-6)]GalNAc
# How it was run: as §1
# [24] = target: Neu5Ac(a2-3)Gal(b1-4)GlcNAc(b1-3)Gal(b1-4)GlcNAc(b1-3)GalNAc
# How it was run: as §1
# [25] = target: Neu5Ac(a2-3)Gal(b1-4)GlcNAc(b1-3)Gal(b1-4)GlcNAc(b1-3)[Neu5Ac(a2-3)Gal(b1-4)GlcNAc(b1-3)Gal(b1-4)GlcNAc(b1-6)]GalNAc
# How it was run: as §1
# [26] = target: Neu5Ac(a2-3)Gal(b1-4)GlcNAc(b1-3)Gal(b1-4)GlcNAc(b1-6)[Gal(b1-3)]GalNAc
# How it was run: as §1
# [27] = target: Neu5Ac(a2-3)Gal(b1-4)GlcNAc(b1-3)Gal(b1-4)[Fuc(a1-3)]GlcNAc
# How it was run: as §1
# [28] = target: Neu5Ac(a2-3)Gal(b1-4)GlcNAc(b1-3)GalNAc
# How it was run: as §1
# [29] = target: Neu5Ac(a2-3)Gal(b1-4)GlcNAc(b1-3)[Neu5Ac(a2-3)Gal(b1-4)GlcNAc(b1-6)]GalNAc
# How it was run: as §1
# [30] = target: Neu5Ac(a2-3)Gal(b1-4)GlcNAc(b1-6)GalNAc
# How it was run: as §1
# [31] = target: Neu5Ac(a2-3)Gal(b1-4)GlcNAc(b1-6)[Gal(b1-3)]GalNAc
# How it was run: as §1
# [32] = target: Neu5Ac(a2-3)Gal(b1-4)GlcNAc(b1-6)[Neu5Ac(a2-3)Gal(b1-3)]GalNAc
# How it was run: as §1
# [33] = target: Neu5Ac(a2-3)Gal(b1-4)GlcNAc6S
# How it was run: as §1
# [34] = target: Neu5Ac(a2-3)Gal(b1-4)[Fuc(a1-3)]GlcNAc
# How it was run: as §1
# [35] = target: Neu5Ac(a2-3)Gal(b1-4)[Fuc(a1-3)]GlcNAc(b1-2)Man
# How it was run: as §1
# [36] = target: Neu5Ac(a2-3)Gal(b1-4)[Fuc(a1-3)]GlcNAc(b1-3)Gal
# How it was run: as §1
# [37] = target: Neu5Ac(a2-3)Gal(b1-4)[Fuc(a1-3)]GlcNAc(b1-3)Gal(b1-4)GlcNAc
# How it was run: as §1
# [38] = target: Neu5Ac(a2-3)Gal(b1-4)[Fuc(a1-3)]GlcNAc(b1-3)Gal(b1-4)[Fuc(a1-3)]GlcNAc(b1-3)Gal(b1-4)[Fuc(a1-3)]GlcNAc
# How it was run: as §1
# [39] = target: Neu5Ac(a2-3)Gal(b1-4)[Fuc(a1-3)]GlcNAc(b1-3)GalNAc
# How it was run: as §1
# [40] = target: Neu5Ac(a2-3)Gal(b1-4)[Fuc(a1-3)]GlcNAc(b1-6)[Gal(b1-3)]GalNAc
# How it was run: as §1
# [41] = target: Neu5Ac(a2-3)Gal(b1-4)[Fuc(a1-3)]GlcNAc(b1-6)[Neu5Ac(a2-3)Gal(b1-3)]GalNAc
# How it was run: as §1
# [42] = target: Neu5Ac(a2-3)Gal(b1-4)[Fuc(a1-3)]GlcNAc6S
# How it was run: as §1
# [43] = target: Neu5Ac(a2-3)Gal6S(b1-4)GlcNAc
# How it was run: as §1
# [44] = target: Neu5Ac(a2-3)Gal6S(b1-4)[Fuc(a1-3)]GlcNAc
# How it was run: as §1
binder,measurement,setting,value
B1,glycan array binding signal (z-score),[1],-0.583
same,glycan array binding signal (z-score),[2],1.71
same,glycan array binding signal (z-score),[3],0.913
same,glycan array binding signal (z-score),[4],-0.068
same,glycan array binding signal (z-score),[5],0.974
same,glycan array binding signal (z-score),[6],-0.995
same,glycan array binding signal (z-score),[7],-0.288
same,glycan array binding signal (z-score),Neu5Ac(a2-3)Gal(b1-4)Glc,-0.259
same,glycan array binding signal (z-score),[8],-0.74
same,glycan array binding signal (z-score),[9],0.939
same,glycan array binding signal (z-score),[10],-0.575
same,glycan array binding signal (z-score),[11],-0.447
same,glycan array binding signal (z-score),[12],2.18
same,glycan array binding signal (z-score),[13],-0.607
same,glycan array binding signal (z-score),[14],-0.935
same,glycan array binding signal (z-score),[15],0.006
same,glycan array binding signal (z-score),[16],-0.473
same,glycan array binding signal (z-score),[17],-0.681
same,glycan array binding signal (z-score),[18],-1.37
same,glycan array binding signal (z-score),[19],-0.722
same,glycan array binding signal (z-score),[20],-1.35
same,glycan array binding signal (z-score),[21],0.24
same,glycan array binding signal (z-score),[22],0.361
same,glycan array binding signal (z-score),[23],0.673
same,glycan array binding signal (z-score),[24],-0.893
same,glycan array binding signal (z-score),[25],0.403
same,glycan array binding signal (z-score),[26],0.103
same,glycan array binding signal (z-score),[27],0.253
same,glycan array binding signal (z-score),[28],-0.07
same,glycan array binding signal (z-score),[29],-0.002
same,glycan array binding signal (z-score),[30],-0.362
same,glycan array binding signal (z-score),[31],0.003
same,glycan array binding signal (z-score),[32],-1.12
same,glycan array binding signal (z-score),[33],-0.255
same,glycan array binding signal (z-score),[34],-0.624
same,glycan array binding signal (z-score),[35],0.642
same,glycan array binding signal (z-score),[36],-0.991
same,glycan array binding signal (z-score),[37],2.63
same,glycan array binding signal (z-score),[38],0.905
same,glycan array binding signal (z-score),[39],3.01
same,glycan array binding signal (z-score),[40],2.09
same,glycan array binding signal (z-score),[41],1.98
same,glycan array binding signal (z-score),[42],0.192
same,glycan array binding signal (z-score),[43],0.423
same,glycan array binding signal (z-score),[44],-0.88

# Some of the entries so far, bar-delimited.
binder | measurement | setting | value
B1 | glycan array binding signal (z-score) | [9] | 0.939
same | glycan array binding signal (z-score) | [10] | -0.575
same | glycan array binding signal (z-score) | [11] | -0.447
same | glycan array binding signal (z-score) | [12] | 2.18
same | glycan array binding signal (z-score) | [13] | -0.607
same | glycan array binding signal (z-score) | [14] | -0.935
same | glycan array binding signal (z-score) | [15] | 0.006
same | glycan array binding signal (z-score) | [16] | -0.473
same | glycan array binding signal (z-score) | [17] | -0.681
same | glycan array binding signal (z-score) | [18] | -1.37
same | glycan array binding signal (z-score) | [19] | -0.722
